# Data published in article PMC6478823, “A suite of phenotypic assays to ensure pipeline diversity when prioritizing drug-like Cryptosporidium growth inhibitors” (Nature Communications, 2019).
# What was measured:
# C. parvum [1] = type: cell-based, Cryptosporidium parvum; conditions: compound at EC90
# Method: The first step in infection is host cell invasion, which involves a complex process encompassing oocyst excystation, parasite motility, adhesion, and parasitophorous vacuole formation (Fig. 2a). Our strategy to assay for compounds affecting invasion was simply to expose C. parvum to compounds immediately after triggering excystation and throughout the invasion process, and then enumerate the parasite vacuoles after 3 h, prior to allowing the parasites to replicate (summarized in Fig. 2b).
# Fig. 2 Invasion Assay. a Overview of life cycle stage investigated during the invasion assay. Representative TEM images of a C. parvum oocyst and HCT-8 cell shortly after infection (Scale bar = 500 nm). b Schematic of experimental design. […] Each point represents the mean and SD of at least two biological replicates with four technical replicates per experiment.
# C. parvum invasion inhibition was measured by modifying the 48 h growth inhibition assay described above. […] In parallel, Iowa strain oocysts were excysted. […] Assay plates were incubated at 37 °C and 5% CO2 for 3 h.
# C. parvum [2] = test: 48 h Cryptosporidium growth inhibition assay; type: cell-based; conditions: read-out: Regular 3 to 48 h assay in vitro EC90; C. parvum in HCT-8 cells; compound added 3 h post-infection, read at 48 h
# Source text: As a first step in developing specific Cryptosporidium mode of action assays, we conducted a series of light microscopy time-lapse and transmission electron microscopy (TEM) time course experiments in order to precisely define C. parvum development within the HCT-8 cell culture system. […] This synchronicity was exploited by modifying a previously developed high-content microscopy assay. These assay modifications enabled the evaluation of several key events within the life cycle: host cell invasion, intracellular replication, host cell egress and establishment of new parasitophorous vacuoles, and sexual differentiation. […]
# A modification of a previously reported immunofluorescence assay was used to determine the EC50 and EC90 of compounds[13]. […] A Nikon Eclipse Ti2000 epifluorescence microscope with an automated stage was programmed using NIS-Elements Advanced Research software (Nikon, USA) to focus on the center of each well and take a 3 × 3 or 6 × 6 composite image using an EXi blue fluorescence microscopy camera (QImaging, Canada) with a 20 × objective (NA = 0.45). Nuclei and parasite images were separately exported as.tif files and analyzed using macros developed on the ImageJ platform (National Institutes of Health)[13].
# C. parvum [3] = test: DNA replication assay (EdU incorporation); type: cell-based, Cryptosporidium parvum; conditions: compound at EC90
# Source text: Following cell invasion, Cryptosporidium trophozoites grow and multiply to give rise to multinucleated type I meronts (Fig. 3a). The thymidine analog 5-ethynyl-2′-deoxyuridine (EdU) is efficiently incorporated into newly synthesized DNA, and can be detected using click chemistry. We used EdU to measure parasite intracellular DNA replication, as a surrogate for the more complex phenotype of intracellular growth and division. The approach for differentially labeling newly synthesized parasite DNA compared to host cell DNA was to take advantage of the fact that C. parvum replicates more quickly than the nearly confluent host cells. Thus, by adding EdU shortly before egress, it was possible to preferentially label replicating parasites (Fig. 3b, c). DNA staining with Hoechst labeled all of the host and parasite DNA, making it challenging to visualize and quantify parasite DNA. A simple DNA stain would also not distinguish pre-existing DNA from newly synthesized DNA (Fig. 3c). In contrast, EdU labeling only occurred with incorporation into newly synthesized DNA. Incorporated EdU was then easily stained for immunofluorescence and labeled parasites were quantified using high-content microscopy and an NIH ImageJ macro (Fig. 3c, DMSO condition). The […] hydroxyurea (10 mM), a known inhibitor of DNA replication, was used as a positive control for assay validation. […]
# Confluent HCT-8 cell monolayers in glass bottom plates were infected with C. parvum, and compounds were added at EC90 following invasion. […] Arrows indicate selected parasites with EdU-labeled DNA. d Quantification of EdU incorporation. […]
# After incubation of cells with EdU for 2 h, cells were washed 3 times with PBS-D-gal and then fixed with PBS containing 4% PFA. […] Cells were then imaged by focusing on parasites (note that the host cell nuclei are in a different focal plane) using a 40 × dry objective (0.7 NA) and EdU, and lectin numbers quantified using ImageJ software and the custom macro in Supplementary Method 1.
# [4] = test system: C. parvum DMC1 expression; test: Sexual differentiation assay (DMC1 expression); type: cell-based, Cryptosporidium parvum; conditions: compound at asexual EC90, 48-72 h
# Source text: We utilized DMC1 as a marker of C. parvum sexual development, and used the anti-DMC1 monoclonal antibody to develop a moderate-throughput high-content microscopy assay for characterizing anticryptosporidial compounds (Fig. 6a). […] Therefore, in order to enable numerical comparison of the ability of compounds to block sexual development with moderate throughput, we adopted a strategy of reporting the percent inhibition of DMC1 expression by the previously determined EC90 of each compound in the standard asexual development assay (Fig. 6c and Supplementary Table 2).
# Fig. 6 Assay to measure asexual-to-sexual-stage conversion. a Schematic of the experimental approach. […] For b and c the mean and SD combined from at least two biological replicates with four technical replicates per experiment are shown. […] At given time points post-infection, infected cells were washed 3 times with PBS containing 111 mM of D-galactose, fixed for 15 min at room temperature with 4% paraformaldehyde in PBS, and permeabilized with 0.25% triton X-100 in PBS for 10 min at 37 °C. […] Lectin positive cells in focus were first counted, followed by DMC1.
# For compound dose-response studies, the same assay was performed in 384-well plates and imaged using a 20 × dry objective (NA = 0.45). […] Images were analyzed using ImageJ software and the custom macro provided in Supplementary Method 2.
compound,measurement,setting,value
CC(C)n1nc(-c2cc3cc(O)ccc3[nH]2)c2c(N)ncnc21 [Torkinib],"Invasion Assay: Mean % Inhibition (parasites), Average",C. parvum [1]; average of replicates,-21.41%
same,"Invasion Assay: Mean % Inhibition (parasites), Replicate 1a",C. parvum [1]; single biological replicate 1,-31%
same,"Invasion Assay: Mean % Inhibition (parasites), Replicate 2a",C. parvum [1]; single biological replicate 2,-11%
same,EC90,C. parvum [2],360 nM
same,"DNA Synthesis Assay: Mean % Inhibition of EdU-labeling (normalized to parasite numbers), Average",C. parvum [3]; average of replicates,-16.16%
same,"DNA Synthesis Assay: Mean % Inhibition of EdU-labeling (normalized to parasite numbers), Replicate 2",C. parvum [3]; single replicate 2,-50.42%
same,"DNA Synthesis Assay: Mean % Inhibition of EdU-labeling (normalized to parasite numbers), Replicate 3",C. parvum [3]; single replicate 3,-8.92%
same,"Asexual to sexual differentiation: Mean % DMC1 inhibition (normalized to host nuclei), Replicate 1a",[4]; single replicate 1,5.76%
same,"Asexual to sexual differentiation: Mean % DMC1 inhibition (normalized to host nuclei), Replicate 2a",[4]; single replicate 2,16.61%
